In assay [1] the target is acetylcholine receptor CHRM3 (UniProt P20309). Put plainly: co-IP; Syt1 co-immunoprecipitated with CHRM3 (Fig. S4C); set-up of this experiment not told in the text shown.
Assay [2] deals with T1, Rho-tagged Or1ad1 (mouse) (UniProt Q8VGH1).
T1 sequence: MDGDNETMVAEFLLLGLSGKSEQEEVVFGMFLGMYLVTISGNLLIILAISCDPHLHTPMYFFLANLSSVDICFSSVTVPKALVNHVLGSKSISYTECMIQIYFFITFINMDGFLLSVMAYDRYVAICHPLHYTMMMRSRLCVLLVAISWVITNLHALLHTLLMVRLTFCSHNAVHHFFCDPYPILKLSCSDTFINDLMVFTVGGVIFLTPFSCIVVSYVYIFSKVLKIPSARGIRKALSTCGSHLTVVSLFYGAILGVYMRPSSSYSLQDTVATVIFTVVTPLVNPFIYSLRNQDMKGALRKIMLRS
Put plainly: co-IP; Rho-tagged Or1ad1 precipitated with anti-Rho antibody (Rho4D2) and Protein A/G magnetic beads from HEK293T lysate (50 mM Tris-HCl, 150 mM NaCl, 1% NP-40); Rtp1s, Gfy, Clgn and Syt1 cotransfected; washes in 0.5% NP-40 buffer; Western blot with anti-Syt1.

Chains of the proteins cited; added tags and fusions are not shown.
UniProt P20309: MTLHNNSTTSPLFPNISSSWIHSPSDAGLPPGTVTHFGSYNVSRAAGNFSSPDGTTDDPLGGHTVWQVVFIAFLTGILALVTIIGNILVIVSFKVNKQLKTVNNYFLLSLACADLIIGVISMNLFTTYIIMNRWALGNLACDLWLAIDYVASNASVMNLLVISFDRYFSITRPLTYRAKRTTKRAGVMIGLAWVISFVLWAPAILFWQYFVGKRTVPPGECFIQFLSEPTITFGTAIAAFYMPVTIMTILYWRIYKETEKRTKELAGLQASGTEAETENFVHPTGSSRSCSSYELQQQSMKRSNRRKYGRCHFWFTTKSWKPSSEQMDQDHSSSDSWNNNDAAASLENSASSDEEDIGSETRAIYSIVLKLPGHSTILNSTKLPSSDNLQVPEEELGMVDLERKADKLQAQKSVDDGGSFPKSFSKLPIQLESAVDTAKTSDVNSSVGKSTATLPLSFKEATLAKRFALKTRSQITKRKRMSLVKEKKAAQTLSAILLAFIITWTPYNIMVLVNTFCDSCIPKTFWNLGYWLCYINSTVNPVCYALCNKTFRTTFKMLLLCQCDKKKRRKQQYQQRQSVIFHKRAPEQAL
UniProt P46096: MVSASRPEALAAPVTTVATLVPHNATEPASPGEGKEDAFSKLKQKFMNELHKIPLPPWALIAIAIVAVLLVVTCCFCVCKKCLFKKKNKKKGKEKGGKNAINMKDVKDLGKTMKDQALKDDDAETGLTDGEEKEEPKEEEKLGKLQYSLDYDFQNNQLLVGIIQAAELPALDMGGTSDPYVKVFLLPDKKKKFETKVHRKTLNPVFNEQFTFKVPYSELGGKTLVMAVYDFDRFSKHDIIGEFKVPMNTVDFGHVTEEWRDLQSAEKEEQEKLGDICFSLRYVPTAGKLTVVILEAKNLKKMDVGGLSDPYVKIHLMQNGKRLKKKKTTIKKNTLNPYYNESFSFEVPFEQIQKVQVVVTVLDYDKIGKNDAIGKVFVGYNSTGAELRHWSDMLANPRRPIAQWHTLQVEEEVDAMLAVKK

In PMC12677133 one finds binding data, which are given here for one substance.

No constants are given. Whether binding was seen depends on the method and setting. Binding seen in cells or lysates may run through a third protein. Some entries that bind do so weakly or less than the wild type. For some assays here: Tags and fused reporters may be left off the sequences shown.

For “Synaptotagmin 1 (Syt1) (from UniProt P46096 1-421)”, the binding entry in assay [1] and in assay [2] was “binds” each time.
